Results on 2 sequences are retold here after paper PMC3871109.

Sequences of proteins named here, by UniProt entry; tags and fusion partners are left off. Residues count along the entry.
UniProt P28908, 19-595: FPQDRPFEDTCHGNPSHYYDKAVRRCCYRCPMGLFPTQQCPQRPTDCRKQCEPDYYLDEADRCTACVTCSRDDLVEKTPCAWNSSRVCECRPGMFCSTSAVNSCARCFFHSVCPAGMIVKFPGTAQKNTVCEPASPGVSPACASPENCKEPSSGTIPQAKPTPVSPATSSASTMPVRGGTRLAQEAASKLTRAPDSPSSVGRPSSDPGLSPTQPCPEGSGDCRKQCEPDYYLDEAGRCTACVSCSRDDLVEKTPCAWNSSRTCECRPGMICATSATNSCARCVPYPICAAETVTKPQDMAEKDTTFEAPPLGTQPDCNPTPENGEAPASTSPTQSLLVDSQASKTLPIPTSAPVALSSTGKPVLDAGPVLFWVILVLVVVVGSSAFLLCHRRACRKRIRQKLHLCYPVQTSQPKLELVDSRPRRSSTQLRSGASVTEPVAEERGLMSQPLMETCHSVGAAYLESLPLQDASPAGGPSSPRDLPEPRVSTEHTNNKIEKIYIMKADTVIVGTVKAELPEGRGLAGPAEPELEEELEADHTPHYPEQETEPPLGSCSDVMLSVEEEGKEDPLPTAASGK

The data set addresses CD30 (UniProt P28908). In words: competition (flow cytometry, HDLM2 cells). As to conditions: no competition with 10x unlabeled CD30 aptamer C2NP or with CD30 antibody, no binding to CD30+ K562 and H9 cells; Dulbecco's PBS with 4.5 g/L glucose, 5 mM MgCl2, 1 mg/mL BSA, 0.1 mg/mL tRNA; 1 h, room temperature; pH not stated; protein on the cell surface; label: 5' Cy3 (unlabeled in antibody competition); single-stranded DNA.

For at least one entry, the source does not settle the construct or the ends of the probe. At least one result comes from cells or an extract, where the contact may be indirect. Negatives hold for the conditions tested.

In the case of TAACTTTGAAGGAAAGGCTACAAACTCTTC [PS1NP], the binding result is listed as “no binding”.
Next, “TACCAGTGCGATGCTCAGTAACTTTGAAGGAAAGGCTACAAACTCTTCCTGACGCATTCGGTTGAC [PS1]”: “no binding”.
